Reference: publication PMC8438024
These are yes or no findings as the source states them, for the method shown. Binding seen in cells or lysates may run through a third protein. A yes stands for co-enrichment or nearness to the bait. Other partners may have been found.

By UniProt entry, the sequences of proteins in these tests, tags left out.
UniProt Q9UKV8: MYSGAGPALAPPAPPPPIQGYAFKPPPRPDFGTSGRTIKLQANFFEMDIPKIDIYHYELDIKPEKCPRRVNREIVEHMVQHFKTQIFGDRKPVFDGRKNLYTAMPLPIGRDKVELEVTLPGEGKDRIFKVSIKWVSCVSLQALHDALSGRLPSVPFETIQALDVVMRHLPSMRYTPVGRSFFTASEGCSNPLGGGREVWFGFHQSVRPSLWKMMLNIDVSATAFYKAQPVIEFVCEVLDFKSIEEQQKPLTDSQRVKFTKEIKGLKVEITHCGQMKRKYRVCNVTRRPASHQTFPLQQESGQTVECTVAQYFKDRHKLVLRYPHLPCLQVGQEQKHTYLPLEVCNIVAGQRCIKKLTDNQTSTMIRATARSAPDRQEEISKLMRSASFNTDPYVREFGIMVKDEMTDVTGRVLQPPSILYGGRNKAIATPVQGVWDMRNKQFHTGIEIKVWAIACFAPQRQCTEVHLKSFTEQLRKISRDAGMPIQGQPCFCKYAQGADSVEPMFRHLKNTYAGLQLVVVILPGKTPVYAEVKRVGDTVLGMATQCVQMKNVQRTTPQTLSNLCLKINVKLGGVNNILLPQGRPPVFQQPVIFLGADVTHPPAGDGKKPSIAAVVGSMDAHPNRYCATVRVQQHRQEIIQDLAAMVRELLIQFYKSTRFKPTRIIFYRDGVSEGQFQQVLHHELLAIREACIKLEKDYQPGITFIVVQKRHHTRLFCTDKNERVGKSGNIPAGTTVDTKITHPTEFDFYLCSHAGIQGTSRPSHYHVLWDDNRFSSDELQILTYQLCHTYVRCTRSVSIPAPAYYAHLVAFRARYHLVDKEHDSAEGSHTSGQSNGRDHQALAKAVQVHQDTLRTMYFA
UniProt Q96EP0: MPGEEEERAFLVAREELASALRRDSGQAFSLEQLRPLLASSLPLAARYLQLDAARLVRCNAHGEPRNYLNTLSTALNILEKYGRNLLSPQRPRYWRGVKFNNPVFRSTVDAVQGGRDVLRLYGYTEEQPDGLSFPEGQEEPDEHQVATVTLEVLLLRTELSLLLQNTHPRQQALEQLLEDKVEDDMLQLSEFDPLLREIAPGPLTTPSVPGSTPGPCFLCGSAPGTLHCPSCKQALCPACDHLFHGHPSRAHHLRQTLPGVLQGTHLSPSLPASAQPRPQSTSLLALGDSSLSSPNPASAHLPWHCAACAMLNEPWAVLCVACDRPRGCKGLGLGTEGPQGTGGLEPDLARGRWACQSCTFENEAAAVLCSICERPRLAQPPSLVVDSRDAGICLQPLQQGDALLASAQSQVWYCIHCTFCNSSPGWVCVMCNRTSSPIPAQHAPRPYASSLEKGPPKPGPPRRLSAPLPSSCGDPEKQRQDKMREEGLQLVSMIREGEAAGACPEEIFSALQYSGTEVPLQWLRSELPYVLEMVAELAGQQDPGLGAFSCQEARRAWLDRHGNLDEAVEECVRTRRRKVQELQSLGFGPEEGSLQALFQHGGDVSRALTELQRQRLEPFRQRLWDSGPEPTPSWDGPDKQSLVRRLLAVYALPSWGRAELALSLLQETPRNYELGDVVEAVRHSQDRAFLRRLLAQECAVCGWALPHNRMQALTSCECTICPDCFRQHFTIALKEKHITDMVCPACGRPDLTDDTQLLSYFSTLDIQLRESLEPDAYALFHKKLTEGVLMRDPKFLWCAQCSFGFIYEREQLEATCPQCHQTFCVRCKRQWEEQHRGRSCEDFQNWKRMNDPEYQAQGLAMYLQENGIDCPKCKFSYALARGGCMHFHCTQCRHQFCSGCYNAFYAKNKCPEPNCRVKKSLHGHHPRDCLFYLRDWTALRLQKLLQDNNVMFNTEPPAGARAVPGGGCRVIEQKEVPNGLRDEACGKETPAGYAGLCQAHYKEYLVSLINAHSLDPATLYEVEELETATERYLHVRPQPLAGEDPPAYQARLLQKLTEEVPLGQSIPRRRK

Molecular target: Flag-AGO2 (stably expressed in HeLa cells) (UniProt Q9UKV8)
Assay: affinity purification with mass spectrometry; HeLa cells stably expressing Flag-AGO2, normoxia (21% O2) or hypoxia (1% O2) for 24 h; RIPA lysis buffer with 10 mM EDTA; anti-Flag M2 antibody and protein A/G-agarose beads, 4 °C overnight; Nano-LC-MS/MS

binding | Substance
binds | endogenous HOIL-1L (HeLa cells) (from UniProt Q9BYM8-1 1-510)
binds | endogenous HOIP (HeLa cells) (from UniProt Q96EP0 1-1072)
